Experimental data published in article PMC7862700.
This is a selection; strong and weak results do not stand in their true shares. For some assays here: At the low end of the ranking, values are background and their order means little. Some of the results follow. For some assays here: Construct or isoform of the protein are uncertain.

The sequences below were run against T1, ETV4 (UniProt P43268) (assay: DAPPL (digital affinity profiling via proximity ligation, sequencing)). Details: 10 mM Tris-HCl pH 7.5, 50 mM NaCl, 1 mM DTT, 4% glycerol, room temperature, 30 min; GST-TFs on glutathione beads, 16-mer random dsDNA library, 0.1% …; high values mean tight binding; double strand, one strand shown; scale: fold enrichment (6-mer frequency, TF over GST control).
T1 sequence: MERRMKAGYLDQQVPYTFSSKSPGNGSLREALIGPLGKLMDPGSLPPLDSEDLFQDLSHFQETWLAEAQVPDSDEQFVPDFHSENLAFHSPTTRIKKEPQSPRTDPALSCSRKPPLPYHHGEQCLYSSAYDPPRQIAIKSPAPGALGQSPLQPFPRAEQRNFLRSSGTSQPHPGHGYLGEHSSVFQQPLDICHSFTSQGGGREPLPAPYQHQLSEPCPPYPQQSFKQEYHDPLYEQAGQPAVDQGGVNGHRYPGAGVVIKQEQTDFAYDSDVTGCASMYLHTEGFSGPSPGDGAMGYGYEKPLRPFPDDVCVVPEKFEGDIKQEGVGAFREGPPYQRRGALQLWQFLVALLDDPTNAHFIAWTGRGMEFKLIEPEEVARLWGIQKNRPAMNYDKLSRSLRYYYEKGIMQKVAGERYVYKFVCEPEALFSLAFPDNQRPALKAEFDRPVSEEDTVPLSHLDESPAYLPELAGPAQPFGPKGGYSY

Question: With CGCGAT as the sequence, how does the binding signal read?
Answer: 1.22

Question: With CCCGCT as the sequence, how does the binding signal read?
Answer: 1.37

Question: How did the binding signal turn out when GTTCAA was run?
Answer: 1.07

Question: For TAGATT, which binding signal is on record?
Answer: 1.2

Question: For TATCCA, which binding signal is on record?
Answer: 1.28

Question: With TTTTTG as the sequence, how does the binding signal read?
Answer: 1.33

Question: With CTATGG as the sequence, how does the binding signal read?
Answer: 1.33

Question: With CCGAAT as the sequence, how does the binding signal read?
Answer: 1.18

Question: How did the binding signal turn out when ACTATT was run?
Answer: 1.19

Question: How did the binding signal turn out when ACGGAT was run?
Answer: 1.3

Question: With CATGAC as the sequence, how does the binding signal read?
Answer: 1.2

Question: GCATTT was tested. Which binding signal did it give?
Answer: 1.36

Question: CTTTGT was tested. Which binding signal did it give?
Answer: 1.29

Question: For CTAACT, which binding signal is on record?
Answer: 1.4

Question: For CCTATA, which binding signal is on record?
Answer: 1.37

Question: For TTTTGG, which binding signal is on record?
Answer: 1.34

Question: Which binding signal does the source give for CGCCTG here?
Answer: 1.18

Question: CCTTAC was tested. Which binding signal did it give?
Answer: 1.29

Question: GAATAT was tested. Which binding signal did it give?
Answer: 1.08

Question: With CTGCAT as the sequence, how does the binding signal read?
Answer: 1.39

Question: For TCATTA, which binding signal is on record?
Answer: 1.16

Question: For TTGCCC, which binding signal is on record?
Answer: 1.36

Question: For CGCGCC, which binding signal is on record?
Answer: 1.1

Question: How did the binding signal turn out when ATTATC was run?
Answer: 1.34

Question: Which binding signal does the source give for ACTGAA here?
Answer: 1.2

Question: How did the binding signal turn out when CCTGCT was run?
Answer: 1.6

Question: With TTTGGG as the sequence, how does the binding signal read?
Answer: 1.26

Question: ACACCT was tested. Which binding signal did it give?
Answer: 1.15

Question: With CAGATG as the sequence, how does the binding signal read?
Answer: 1.01

Question: How did the binding signal turn out when GCAATC was run?
Answer: 0.98

Question: How did the binding signal turn out when ACATGC was run?
Answer: 1.3

Question: With CCACTC as the sequence, how does the binding signal read?
Answer: 1.32

Question: How did the binding signal turn out when AATGAC was run?
Answer: 1.41

Question: For TATCAC, which binding signal is on record?
Answer: 1.28

Question: Which binding signal does the source give for ACACTG here?
Answer: 1.13

Question: With CACTAC as the sequence, how does the binding signal read?
Answer: 1.25

Question: For CTTAAG, which binding signal is on record?
Answer: 1.01

Question: How did the binding signal turn out when CCCCTT was run?
Answer: 1.59

Question: How did the binding signal turn out when AAACTA was run?
Answer: 1.23

Question: GAACTA was tested. Which binding signal did it give?
Answer: 1.3

Each sequence was assayed against T2, ERF (UniProt P50548) in the same assay as above. Details: 10 mM Tris-HCl pH 7.5, 50 mM NaCl, 1 mM DTT, 4% glycerol, room temperature, 30 min; GST-TFs on glutathione beads, 16-mer random dsDNA library, 0.1% …; high values mean tight binding; double strand, one strand shown; scale: fold enrichment (6-mer frequency, TF over GST control).
T2 sequence: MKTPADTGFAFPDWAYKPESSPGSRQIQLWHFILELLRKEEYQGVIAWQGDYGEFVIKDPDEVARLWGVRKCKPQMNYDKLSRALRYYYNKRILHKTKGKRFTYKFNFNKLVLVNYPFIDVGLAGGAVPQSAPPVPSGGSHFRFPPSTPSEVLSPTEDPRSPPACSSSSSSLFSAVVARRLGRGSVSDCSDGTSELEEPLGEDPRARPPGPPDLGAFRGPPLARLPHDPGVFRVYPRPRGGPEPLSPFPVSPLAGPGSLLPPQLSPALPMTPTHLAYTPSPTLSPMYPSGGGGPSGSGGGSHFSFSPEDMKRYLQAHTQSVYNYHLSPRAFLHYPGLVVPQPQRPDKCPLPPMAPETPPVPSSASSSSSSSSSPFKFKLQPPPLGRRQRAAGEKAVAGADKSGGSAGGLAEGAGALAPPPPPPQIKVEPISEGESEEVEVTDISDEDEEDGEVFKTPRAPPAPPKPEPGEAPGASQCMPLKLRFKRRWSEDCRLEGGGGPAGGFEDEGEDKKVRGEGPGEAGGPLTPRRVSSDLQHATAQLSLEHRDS

Question: Which binding signal does the source give for CGCGAT here?
Answer: 0.895

Question: For CCCGCT, which binding signal is on record?
Answer: 1.37

Question: For GTTCAA, which binding signal is on record?
Answer: 1.14

Question: How did the binding signal turn out when TAGATT was run?
Answer: 1.37

Question: Which binding signal does the source give for TATCCA here?
Answer: 1.27

Question: With TTTTTG as the sequence, how does the binding signal read?
Answer: 1.35

Question: Which binding signal does the source give for CTATGG here?
Answer: 1.11

Question: For CCGAAT, which binding signal is on record?
Answer: 1.35

Question: ACTATT was tested. Which binding signal did it give?
Answer: 1.22

Question: For ACGGAT, which binding signal is on record?
Answer: 1.11

Question: CATGAC was tested. Which binding signal did it give?
Answer: 1.18

Question: Which binding signal does the source give for GCATTT here?
Answer: 1.31

Question: With CTTTGT as the sequence, how does the binding signal read?
Answer: 1.3

Question: CTAACT was tested. Which binding signal did it give?
Answer: 1.32

Question: How did the binding signal turn out when CCTATA was run?
Answer: 1.33

Question: How did the binding signal turn out when TTTTGG was run?
Answer: 1.47

Question: With CGCCTG as the sequence, how does the binding signal read?
Answer: 0.945

Question: With CCTTAC as the sequence, how does the binding signal read?
Answer: 1.32

Question: Which binding signal does the source give for GAATAT here?
Answer: 0.995

Question: How did the binding signal turn out when CTGCAT was run?
Answer: 1.38

Question: For TCATTA, which binding signal is on record?
Answer: 1.19

Question: For TTGCCC, which binding signal is on record?
Answer: 1.3

Question: How did the binding signal turn out when CGCGCC was run?
Answer: 1.1

Question: For ATTATC, which binding signal is on record?
Answer: 1.36

Question: Which binding signal does the source give for ACTGAA here?
Answer: 1.13

Question: Which binding signal does the source give for CCTGCT here?
Answer: 1.53

Question: With TTTGGG as the sequence, how does the binding signal read?
Answer: 1.39

Question: For ACACCT, which binding signal is on record?
Answer: 1.14

Question: With CAGATG as the sequence, how does the binding signal read?
Answer: 1.11

Question: For GCAATC, which binding signal is on record?
Answer: 1.03

Question: Which binding signal does the source give for ACATGC here?
Answer: 1.37

Question: With CCACTC as the sequence, how does the binding signal read?
Answer: 1.13

Question: Which binding signal does the source give for AATGAC here?
Answer: 1.35

Question: For TATCAC, which binding signal is on record?
Answer: 1.19

Question: With ACACTG as the sequence, how does the binding signal read?
Answer: 1.17

Question: With CACTAC as the sequence, how does the binding signal read?
Answer: 1.33

Question: With CTTAAG as the sequence, how does the binding signal read?
Answer: 1.07

Question: How did the binding signal turn out when CCCCTT was run?
Answer: 1.53

Question: How did the binding signal turn out when AAACTA was run?
Answer: 1.29

Question: GAACTA was tested. Which binding signal did it give?
Answer: 1.25
